In all, about 330,000 compounds went through this assay and about 7,700 (2.3%) were called active. This list was built around the results that the source calls inconclusive (neither active nor inactive); the mix of calls is not that of the screen. The call rests on the fitted dose curve; in most records, active means well fitted inhibition curve with a large enough effect; inconclusive means small, poorly fitted or top-dose-only effect, or effect the other way; inactive means flat fitted curve, though single readings scatter. A potency beside an inconclusive call is a rough fit, not a confirmed value.
Assay: qHTS screen for small molecules that inhibit ELG1-dependent DNA repair in human embryonic kidney (HEK293T) cells expressing luciferase-tagged ELG1; further: nearly all actives have a fitted effect of over 55% in size
Settings: HEK293T ELG1-luciferase reporter, luminescence, 16 h, DNA damage induced by 5-fluorouridine; activity change, negative = inhibition: at 46.1 µM (top of the series)
Method in brief: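 Quantitative HTS, concentration-response format. 2,000 cells/well co-treated with 5-fluorouridine and compound, 16 hr in 5% CO2 at 37 °C; ONE-Glo luminescence read after 30 min.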
On the % scale 0 is the no-effect control and ±100 the full control effect; potency means the concentration at half of the fitted maximal effect.

**Q.** With `CC(=O)c1cccc(NC(=S)NC(=O)c2cccc(Cl)c2)c1` as the compound, how does the Potency read?
**A.** inconclusive: 11.6 µM [activator, partial curve]

**Q.** With `COc1ccc2ccccc2c1CNC(=O)CC1C(=O)NCCN1CC(C)(C)C` (centres undefined) as the compound, how does the “activity change, negative = inhibition” value read?
**A.** inactive: 13.3%

**Q.** Which Potency does the source give for `CCc1nc(N2CCN(C(=O)c3ccccc3)CC2)c(C#N)c2c1COC(C)(C)C2` here?
**A.** inconclusive: 18.4 µM [inhibitor, single point]

**Q.** For `Cc1cc(C(=O)CSc2nnnn2C)c(C)n1-c1cccc(F)c1`, which Potency is on record?
**A.** inconclusive: 2.31 µM [activator, full curve]

**Q.** Which Potency does the source give for `O=C(Nc1ccc(NC(=O)c2cccc([N+](=O)[O-])c2)cc1)c1cccc([N+](=O)[O-])c1` here?
**A.** inconclusive: 22.4 µM [activator, partial curve, poor fit]

**Q.** With `CCC(C)N(C(=O)Cn1nnc(-c2ccc(F)cc2)n1)C1CCS(=O)(=O)C1` (centres undefined) as the compound, how does the “activity change, negative = inhibition” value read?
**A.** inactive: -10.4%

**Q.** For `Cc1cc(C)c(C)c(S(=O)(=O)NCC(=O)Nc2sc3c(c2C(N)=O)CCCC3)c1C`, which Potency is on record?
**A.** inconclusive: 20.6 µM [inhibitor, single point]

**Q.** Which Potency does the source give for `COc1cc(C(=O)NC(=S)NNC(=O)c2ccc3c(c2)OCO3)cc(OC)c1OC` here?
**A.** active: 16.4 µM

**Q.** For `COc1ccc(/C=C2/Sc3ccc(C(=O)N4CCc5ccccc5C4)cc3NC2=O)cc1`, which “activity change, negative = inhibition” value is on record?
**A.** inactive: -22.3%

**Q.** Which “activity change, negative = inhibition” value does the source give for `CCN1CCN(c2ccc(S(=O)(=O)N3CCOCC3)cc2NC(=O)/C=C/c2ccc(OC)cc2OC)CC1` here?
**A.** inactive: -10.3%

**Q.** Which Potency does the source give for `O=S(=O)(NCc1c(Cl)cccc1Oc1ccccc1)c1ccc(F)cc1` here?
**A.** inconclusive: 29.1 µM [inhibitor, single point]

**Q.** For `CCOC(=O)Cc1csc(NC(=O)c2ccc(S(=O)(=O)N3CCOCC3)cc2)n1`, which “activity change, negative = inhibition” value is on record?
**A.** inactive: 0%

**Q.** With `O=C(CCC1CCN(Cc2ccccc2O)CC1)NC1CC1` as the compound, how does the Potency read?
**A.** inconclusive: 0.891 µM [activator, single point]

**Q.** For `Cc1ccc(-c2nc(CS(=O)(=O)CC(=O)NC3CCC(C)CC3)c(C)o2)cc1` (centres undefined), which Potency is on record?
**A.** inconclusive: 29.1 µM [inhibitor, partial curve, poor fit]

**Q.** For `Cc1cccc(C)c1OCC(=O)N(Cc1ccc(N(C)C)cc1)C1CCS(=O)(=O)C1` (centres undefined), which “activity change, negative = inhibition” value is on record?
**A.** inactive: 17.7%

**Q.** With `O=C1CCCC2=C1C(c1cccc(O)c1)c1c(ccc3ncccc13)N2` (centres undefined) as the compound, how does the Potency read?
**A.** inconclusive: 20.6 µM [activator, partial curve]

**Q.** For `CCN1CCCC1CNC(=O)c1cc2c(C)nc3ccccc3c2o1` (centres undefined), which “activity change, negative = inhibition” value is on record?
**A.** inactive: -1.32%

**Q.** With `CC(C)(C)N1NC2(CCCCC2)NC1=S` as the compound, how does the “activity change, negative = inhibition” value read?
**A.** inactive: -8.07%

**Q.** For `COc1ccc(N=C2SC(CC(=O)Nc3ccccc3)C(=O)N2Cc2ccccn2)cc1` (centres undefined), which Potency is on record?
**A.** inconclusive: 29.1 µM [inhibitor, single point]

**Q.** For `O/N=C/c1ccc(OCc2ccccc2F)c(Cl)c1`, which Potency is on record?
**A.** inconclusive: 4.11 µM [activator, partial curve]

**Q.** With `CCN(CCS(=O)(=O)c1ccc(Cl)cc1)Cc1nc2ccccc2c(=O)[nH]1` as the compound, how does the Potency read?
**A.** inconclusive: 25.9 µM [inhibitor, single point]

**Q.** With `CN(c1ccccc1)S(=O)(=O)c1cccc(NC(=O)c2cccc(C#N)c2)c1` as the compound, how does the Potency read?
**A.** inconclusive: 23.1 µM [inhibitor, single point]

**Q.** For `CCc1ccc(/C=C2\Oc3ccc(C(=O)OC)cc3C2=O)cc1`, which Potency is on record?
**A.** inconclusive: 14.6 µM [activator, single point]

**Q.** For `CC1(C)CC2(CC(c3ccccc3)Oc3cc(O)ccc32)NC(=S)N1` (centres undefined), which Potency is on record?
**A.** inconclusive: 6.51 µM [inhibitor, partial curve]

**Q.** For `COc1ccc(NC(=S)N2CCN(C(c3ccccc3)c3ccccc3)CC2)cc1OC`, which Potency is on record?
**A.** inconclusive: 29.1 µM [inhibitor, partial curve, poor fit]

**Q.** With `Cc1nc(C)c(C(=O)OCC(=O)NCc2ccccc2)s1` as the compound, how does the “activity change, negative = inhibition” value read?
**A.** inactive: 17.7%

**Q.** With `Cc1ccc(-c2noc(-c3ccccc3C(=O)NCc3ccco3)n2)cc1` as the compound, how does the “activity change, negative = inhibition” value read?
**A.** inactive: 17.1%

**Q.** With `COc1ccc(CN2C(=O)CN(C3CCCCCC3)C(=O)C2c2ccc(F)cc2)cc1` (centres undefined) as the compound, how does the “activity change, negative = inhibition” value read?
**A.** inactive: -3.7%

**Q.** For `COc1ccc(NC(=O)Cc2cccc(F)c2)cc1S(=O)(=O)Nc1ccccc1Cl`, which Potency is on record?
**A.** inconclusive: 29.1 µM [inhibitor, single point]

**Q.** Which Potency does the source give for `Clc1cccc2sc(N3CCCCC3)nc12` here?
**A.** inconclusive: 17.8 µM [activator, partial curve, poor fit]

**Q.** With `COc1ccc(CC(=O)Nc2c(C(N)=O)oc3ccccc23)cc1OC` as the compound, how does the Potency read?
**A.** inconclusive: 2.06 µM [inhibitor, partial curve, poor fit]

**Q.** For `COc1ccc(-c2csc(NC(=O)C3=COCCO3)n2)c(OC)c1`, which Potency is on record?
**A.** inconclusive: 18.3 µM [activator, partial curve]

**Q.** With `Cc1cn(C(=O)c2ccccc2)c(=S)n1-c1ccc(Br)cc1` as the compound, how does the “activity change, negative = inhibition” value read?
**A.** inactive: -11%

**Q.** For `c1csc(-c2cc(N3CCCCC3)c3ccccc3n2)c1`, which “activity change, negative = inhibition” value is on record?
**A.** inactive: -20.9%

**Q.** Which Potency does the source give for `CC1CCN(C(=O)CN2C(=O)NC3(CCCc4ccccc43)C2=O)CC1` (centres undefined) here?
**A.** inconclusive: 0.58 µM [activator, single point]

**Q.** With `NC(=O)CC(NC(=O)c1ccc(Br)cc1)c1ccc(NCc2ccc(F)cc2)c([N+](=O)[O-])c1` (centres undefined) as the compound, how does the “activity change, negative = inhibition” value read?
**A.** inactive: -27.7%

**Q.** With `Cc1nc2nc(-c3ccc(Cl)cc3)[nH]n2c(=O)c1Cc1ccccc1` as the compound, how does the Potency read?
**A.** inconclusive: 18.4 µM [activator, partial curve]

**Q.** Which Potency does the source give for `O=C(NC(=S)NC(c1ccccc1)c1ccncc1)c1ccccc1` (centres undefined) here?
**A.** active: 18.4 µM

**Q.** With `CCNc1ccc(C(=O)O)cc1N` as the compound, how does the Potency read?
**A.** inconclusive: 18.4 µM [activator, single point]

**Q.** For `Cc1ccc(C)c(NC(=O)C(Sc2nnc(-c3cccs3)o2)c2ccccc2)c1` (centres undefined), which Potency is on record?
**A.** inconclusive: 23.1 µM [activator, partial curve, poor fit]

**Q.** With `CCOc1ccc(CCNC(=O)C2CCN(S(=O)(=O)c3ccc(C)cc3)CC2)cc1OCC` as the compound, how does the Potency read?
**A.** inconclusive: 6.51 µM [inhibitor, partial curve, poor fit]

**Q.** For `CCOC(=O)N1CCN(CC(=O)c2ccc(O)cc2O)CC1`, which Potency is on record?
**A.** inconclusive: 18.3 µM [activator, partial curve]

**Q.** For `Cn1c2ccccc2c2nn(-c3ccccc3)c(=O)cc21`, which Potency is on record?
**A.** inconclusive: 0.82 µM [inhibitor, single point]

**Q.** Which Potency does the source give for `CS(=O)(=O)N1CCc2cc(C(=O)Nc3cccc([N+](=O)[O-])c3)ccc21` here?
**A.** inconclusive: 23.1 µM [inhibitor, single point]

**Q.** With `Cc1ccc(C(=O)CSc2nnc(C3CC3)n2C2CC2)s1` as the compound, how does the Potency read?
**A.** inconclusive: 23.1 µM [activator, partial curve, poor fit]

**Q.** With `Cc1ccccc1NC(=O)CSc1nc2ccccc2c2nc(CCn3cncc3C)nn12` as the compound, how does the Potency read?
**A.** inconclusive: 32.6 µM [inhibitor, single point]

**Q.** Which Potency does the source give for `O=C(CSCc1ccccc1Cl)NN1C(=O)c2ccccc2C1=O` here?
**A.** inconclusive: 1.3 µM [inhibitor, single point]

**Q.** Which “activity change, negative = inhibition” value does the source give for `Cc1ccc(NCc2n[nH]c(=S)n2Cc2ccccc2)cc1Cl` here?
**A.** inactive: -1.21%

**Q.** For `O=C(Nc1ccccc1Cc1ccccc1)c1ccccc1NS(=O)(=O)c1ccc(Cl)s1`, which Potency is on record?
**A.** inconclusive: 7.31 µM [inhibitor, partial curve, poor fit]

**Q.** Which Potency does the source give for `Cc1ccc(-c2nn3c(C)nnc3s2)cc1NC(=O)c1ccc(OC(C)C)cc1` here?
**A.** inconclusive: 20.6 µM [inhibitor, partial curve]

**Q.** With `CCc1cc(=O)oc2cc(C)cc(O)c12` as the compound, how does the “activity change, negative = inhibition” value read?
**A.** inactive: -22.9%

**Q.** Which Potency does the source give for `Cn1nnnc1Sc1ncnc2scc(-c3ccccc3Br)c12` here?
**A.** inconclusive: 16.4 µM [inhibitor, single point]

**Q.** Which Potency does the source give for `CN1C(C(=O)NCc2ccc(OC(F)(F)F)cc2)CC2Cn3c(nc4cc(Cl)c(Cl)cc43)C21` (centres undefined) here?
**A.** inconclusive: 20.6 µM [inhibitor, single point]

**Q.** For `Cc1ccc(OCc2nnc(SCC(=O)N3CCOCC3)n2C)cc1`, which “activity change, negative = inhibition” value is on record?
**A.** inactive: 3.42%

**Q.** Which “activity change, negative = inhibition” value does the source give for `Cc1noc(C)c1NC(=O)N(C)C[C@H]1Oc2ccc(NS(=O)(=O)c3ccc(F)cc3)cc2C(=O)N([C@H](C)CO)C[C@@H]1C` here?
**A.** inactive: 0%

**Q.** With `COc1ccc(-c2ccnc(SCC(=O)c3ccc(OC)c(OC)c3)n2)cc1` as the compound, how does the Potency read?
**A.** inconclusive: 25.9 µM [inhibitor, partial curve]

**Q.** Which “activity change, negative = inhibition” value does the source give for `CC(C)NC(=S)N1CCN(Cc2ccc3c(c2)OCO3)CC1` here?
**A.** inactive: 5.98%

**Q.** Which Potency does the source give for `COCCNc1nnnc2c1sc1nc(N3CCOCC3)c3c(c12)CC(C)(C)OC3` here?
**A.** active: 4.11 µM

**Q.** With `COc1ccc(C(NC=O)c2cc(OC)c(OC)cc2Br)cc1OC` (centres undefined) as the compound, how does the “activity change, negative = inhibition” value read?
**A.** inactive: 5.5%

**Q.** For `CN(Cc1ccccc1)C(=O)COC(=O)c1cc(NS(=O)(=O)c2cccs2)ccc1O`, which Potency is on record?
**A.** inconclusive: 29.1 µM [inhibitor, single point]

**Q.** For `Cc1ccc(-c2nc3ncccn3c2Nc2ccc3c(c2)OCCO3)cc1`, which Potency is on record?
**A.** inconclusive: 0.366 µM [activator, partial curve, poor fit]

**Q.** With `CCc1ccc(CNc2ccc3c(c2)ncn3C(C)(C)C)cc1` as the compound, how does the Potency read?
**A.** inconclusive: 18.3 µM [activator, partial curve]

**Q.** With `O=C(COC(=O)c1cccc(-n2cnnn2)c1)c1ccccc1` as the compound, how does the Potency read?
**A.** inconclusive: 29.1 µM [activator, single point]

**Q.** With `Cc1ccc(-c2ccc(=O)n(CCC(=O)N3CCN(c4cccc(C)c4)C(C)C3)n2)cc1` (centres undefined) as the compound, how does the Potency read?
**A.** inconclusive: 29.1 µM [inhibitor, single point]

**Q.** For `CC1(C)Cc2c(sc(NC(=O)COc3ccc(Cl)cc3Cl)c2C(N)=O)C(C)(C)N1`, which Potency is on record?
**A.** inconclusive: 25.9 µM [activator, partial curve, poor fit]

**Q.** Which “activity change, negative = inhibition” value does the source give for `CCOc1ccc(NC(=O)c2ccccc2OCC(=O)c2ccccc2)cc1` here?
**A.** inactive: -16.6%

**Q.** Which Potency does the source give for `Cc1ccccc1OCc1nc2ccccc2c(=O)n1/N=C/c1cn[nH]c1-c1ccccc1` here?
**A.** active: 4.61 µM

**Q.** With `Cc1cc(C(=O)OCC(=O)c2ccc(Cl)c([N+](=O)[O-])c2)c2cccc(C)c2n1` as the compound, how does the “activity change, negative = inhibition” value read?
**A.** inactive: 12.8%

**Q.** Which Potency does the source give for `CC(=O)Nc1sc(C)c(C)c1C(=O)OCC(=O)Nc1ccccc1` here?
**A.** inconclusive: 1.03 µM [inhibitor, full curve, poor fit]

— PubChem BioAssay AID504467 (National Center for Advancing Translational Sciences (NCATS), 2011)
